For four compounds, T/C and survivor count results are on record in PubChem BioAssay AID330 (DTP/NCI, 2004).

The list does not hold the whole screen: it is rich in T/C values a quarter to a half above the control, in often repeated tests (any T/C) and in doses without a T/C. Other doses and runs of a compound stand elsewhere. T/C: endpoint of the treated group in % of that of the vehicle group. Some doses have a count of surviving animals in place of a T/C: the source holds a T/C of zero for them, seemingly a mark for toxic or unscored doses. Some doses without a T/C left all or most animals alive at the check, yet need not have been tolerated: the source hardly ever lists a survival T/C far under the control, and the zero likely stands for such cases as well. Survivors were counted at the toxicity check, usually on the fifth day, unless a day is given; later deaths do not show. Schedule codes are those of the source, taken here to give the interval after Q, in days (D) or hours (H), and the number of doses after X. For survival time, the PubChem record calls one and a half times the control and up active, and a quarter to a half above the control has no call in these data; cut-offs in other NCI protocols can differ.

The test relates to P388 leukemia ip, CD2F1 mice, survival T/C. In words: NCI In Vivo Anticancer Drug Screen. Data for tumor model P388 Leukemia (intraperitoneal) in CD2F1 (CDF1) mice. The following applies: T/C endpoint: median survival time, schedule: Q01DX009 (ip), higher T/C = longer survival.
[1] abbreviates: dose: 200.0 mg/kg/injection, vehicle: Klucel (hydroxypropylcellulose) (HPC).

Turning to `CNC(=O)OCc1c(COC(=O)NC)c(-c2ccccc2)n(C)c1-c1ccccc1`, the T/C is 135 % of control (dose: 2.5 mg/kg/injection, vehicle: distilled water + Tween-80); 127 % of control (dose: 3.12 mg/kg/injection, vehicle: distilled water + Tween-80); 135 % of control (dose: 5.0 mg/kg/injection, vehicle: distilled water + Tween-80); 148 % of control (dose: 6.25 mg/kg/injection, vehicle: distilled water + Tween-80); 127 % of control (dose: 25.0 mg/kg/injection, vehicle: distilled water + Tween-80). Besides, the survivor count (dose: 50.0 mg/kg/injection, vehicle: distilled water + Tween-80) is 5 of 6.

On to `O=C(CC(Sc1ccccc1)c1cccc([N+](=O)[O-])c1)c1ccccc1` (stereo unspecified), for which the survivor count runs as follows: under setting [1], 2 of 6; (dose: 400.0 mg/kg/injection, vehicle: Klucel (hydroxypropylcellulose) (HPC)) 2 of 6.

Regarding `Nc1ccc(C(=O)CCl)c(Cl)c1`, the survivor count (dose: 100.0 mg/kg/injection, vehicle: Klucel (hydroxypropylcellulose) (HPC)) was 0 of 6 and the survivor count under setting [1] is on record as 0 of 6.

With `O=C(Nc1ccc(Cc2ccc(NC(=O)Nc3nccs3)cc2)cc1)Nc1nccs1`, the survivor count (dose: 12.5 mg/kg/injection, vehicle: Klucel (hydroxypropylcellulose) (HPC)) is on record as 6 of 6.
